Measurements as given in the supplement of paper PMC6289059.
The other results are listed elsewhere or left out. Repeats are few or missing, and single values can be far off.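 The cells are hepatocyte-like cells grown from human stem cells in which the DGUOK gene was disrupted by CRISPR, a model of liver mtDNA depletion syndrome. Each well's ATP signal was scored against the other wells on its plate, and a drug counted as a primary hit when its score was 3 or higher.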

What follows are compounds tested on DGUOK Δ14/Δ5 iPSC-derived hepatocyte-like cells (SV20) (assay: ATP level (CellTiter-Glo luminescence) Z score relative to plate distribution, under 2-DG glycolysis block; higher = more cellular ATP (rescue of mitochondrial ATP production)). Details: 5 µM; treatment time: day 15 to day 20 of differentiation (5 days); 2-deoxy-D-glucose: 20 mM for 24 h before assay.

| SMILES | ATP level |
| --- | --- |
| Cc1nc2n(c(=O)c1CCN1CCC(c3noc4cc(F)ccc34)CC1)CCCC2 | inactive: -4.23 |
| CNCCC(Oc1ccc(C(F)(F)F)cc1)c1ccccc1 (stereo not given) | inactive: -2.32 |
| C=C1c2c(Cl)ccc(O)c2C(O)=C2C(=O)[C@]3(O)C(O)=C(C(N)=O)C(=O)[C@@H](N(C)C)[C@@H]3[C@@H](O)[C@H]12.O=C(O)c1cc(S(=O)(=O)O)ccc1O | inactive: -4.5 |
| CC(=O)Nc1ccc(CC(=O)O)cc1 | inactive: -0.295 |
| C=C1C(=O)O[C@@H]2C[C@@]3(C)CCC[C@H](C)C3=C[C@H]12 | inactive: -0.482 |
| CCN1CC(CCN2CCOCC2)C(c2ccccc2)(c2ccccc2)C1=O (stereo not given) | inactive: 0.927 |
| CCCCNC(=O)NS(=O)(=O)c1ccc(C)cc1 | inactive: 0.264 |
| O=C(O)c1cc(-c2ccc(F)cc2F)ccc1O | inactive: 0.762 |
| CC(=O)[C@H]1CC[C@H]2[C@@H]3C[C@H](C)C4=CC(=O)CC[C@]4(C)[C@H]3[C@@H](O)C[C@]12C | inactive: 0.517 |
| CCOC(=O)OC(C)OC1=C(C(=O)Nc2ccccn2)N(C)S(=O)(=O)c2ccccc21 (stereo not given) | inactive: 0.321 |
| COC(=O)c1c(C)cc(O)cc1O | inactive: -1.8 |
| CCCCCCCCCCCCC[N+](C)(C)Cc1ccccc1 | inactive: -11.7 |
| O=S(=O)(O)CCS | inactive: 2.38 |
| CCn1cc(C(=O)O)c(=O)c2cnc(N3CCCC3)nc21 | inactive: -7.58 |
| CC(C)Nc1ncccn1 | inactive: 1.93 |
| COc1ccc(C(=O)CC(=O)O)c2c1C=CC(C)(C)O2 | inactive: 1.24 |
| COC(=O)C[C@H]1C(C)(C)C(=O)[C@@H]2CC3=C4CC(=O)O[C@@H](c5ccoc5)[C@]4(C)CC[C@@H]3[C@@]1(C)C2=O | inactive: -0.239 |
| CC(C)(c1ccc(O)cc1)c1ccc(O)cc1 | inactive: -2.09 |
| CC1(C)NC(=O)N(c2ccc([N+](=O)[O-])c(C(F)(F)F)c2)C1=O | inactive: 2 |
| CCCCCCc1ccc(O)cc1O | inactive: 2.04 |
| C[C@]12C=CC(=O)C=C1CC[C@@H]1[C@@H]2[C@@H](O)C[C@@]2(C)[C@H]1CC[C@]2(O)C(=O)COC(=O)CCC(=O)O | inactive: 2.11 |
| COC(=O)[C@@H]1[C@H]2C[C@H]3c4[nH]c5ccccc5c4CCN3C[C@@H]2CC[C@@H]1O | inactive: 0.298 |
| C=C(C)[C@@H]1CC=C(C(=O)O)CC1 | inactive: -0.361 |
| N#C[C@@H]1C[C@@H]2C[C@@H]2N1C(=O)[C@@H](N)C12CC3CC(CC(O)(C3)C1)C2 | inactive: 0.655 |
| CCS(=O)(=O)CCn1c([N+](=O)[O-])cnc1C | inactive: 0.514 |

3 structures out of the list, ordered by formula weight, descending:

| SMILES | ATP level |
| --- | --- |
| Cc1nc2n(c(=O)c1CCN1CCC(c3noc4cc(F)ccc34)CC1)CCCC2 | inactive: -4.23 |
| COc1ccc(C(=O)CC(=O)O)c2c1C=CC(C)(C)O2 | inactive: 1.24 |
| CC(C)Nc1ncccn1 | inactive: 1.93 |
